Source: PubChem BioAssay AID540256 (National Center for Advancing Translational Sciences (NCATS), 2011)
“And” between values parts separate entries of the source, which are not always exact repeats. Equal entries are not always repeated. The campaign covered roughly 300,000 compounds. About 3,700 (1.2%) were called active. Inconclusive results, whose numbers are uncertain, are shown with a selection of clear calls. Calls come from the whole dose curve; tested in HEK293 cells. Potencies of inconclusive entries are doubtful fits and often do not repeat.
Potency is the fitted concentration of half-maximal effect.

Experiment: qHTS for Inhibitors of binding or entry into cells for Lassa Virus; note: nearly all actives have a fitted effect of over 50% in size
Conditions: Lassa virus pseudotype entry inhibition, cell reporter; series mostly up to 37.9 µM
For `O=C(Nc1cccc(NC(=O)c2ccc(-c3cccc(Br)c3)o2)c1)c1ccco1`, the Potency was “inactive”.
In the case of `O=C(CC(c1ccccc1)c1ccccc1)NCC(O)c1ccc([N+](=O)[O-])cc1` (centres undefined), the Potency is reported as inconclusive: 10 µM [inhibitor, partial curve, poor fit].
With `Cc1cc(N2CCC(C(=O)N3CCN(c4cccc(C)c4C)CC3)CC2)n2ncnc2n1` the Potency was “inactive”.
For `CC(=O)Nc1ccc(NC(=O)C/C(C)=N/NC(=O)COc2cc(C)c(Br)cc2Br)cc1`, the Potency was “inactive”.
For `CN(CCCC(=O)Nc1ccccc1F)S(=O)(=O)c1ccc(F)cc1`, the Potency was “inactive”.
With `Cc1ccc(C)c(NC(=O)C[n+]2ccccc2)c1` the Potency was inconclusive: 0.447 µM [activator, full curve, poor fit].
With `CCOC(=O)Nc1cccc(OCC(=O)Nc2ccc(OC)cc2OC)c1` the Potency was inconclusive: 29.1 µM [inhibitor, single point].
With `N=C1S/C(=C\c2ccc(-c3cccc(Cl)c3)o2)C(=O)N1c1nccs1` the Potency was inconclusive: 12.6 µM [inhibitor, partial curve, poor fit].
With `CCOc1ccc(CNC(=O)c2ccc3nc(C(C)C)oc3c2)cc1` the Potency was “inactive”.
For `COC(=O)c1ccc(NC(=O)NCCn2nnc3cc(S(=O)(=O)N(C)C)ccc32)cc1`, the Potency was “inactive”.
With `Cc1ccc2cc(CN(Cc3nnnn3Cc3ccco3)CC3CCCO3)c(=O)[nH]c2c1C` (centres undefined) the Potency was inconclusive: 12.6 µM [inhibitor, partial curve, poor fit].
In the case of `COc1ccc(/C=N/NC(=O)COc2ccccc2-c2ccccc2)cc1`, the Potency is reported as inconclusive: 23.1 µM [inhibitor, partial curve, poor fit].
For `CCCCCCCCCCCCCCCCCCOC[C@H](COP(=O)([O-])OCC[N+](C)(C)C)OC`, the Potency was inconclusive: 32.6 µM [inhibitor, single point].
With `CC(C)c1oc(=O)cc2c1[C@@H](O)[C@H]1OC(=O)[C@@]3(C)C[C@@H](O)[C@@H](O)[C@@]2(C)C13` (some centres undefined) the Potency was active: 6.51 µM.
For `CC(C)NC(=O)COC(=O)c1ccc(Oc2ccccc2)cc1`, the Potency was inconclusive: 20 µM [inhibitor, single point].
For `CCc1ccc2nc(NC(=O)C3CSC4(C)CCC(=O)N34)sc2c1` (centres undefined), the Potency was inconclusive: 35.5 µM [inhibitor, single point].
With `O=C(NCCCN1CCCC1=O)c1cc(-c2cccnc2)nc2ccc(Cl)cc12` the Potency was “inactive”.
For `Cn1ncc(Br)c1C(=O)NCc1cccs1`, the Potency was inconclusive: 10.3 µM [activator, partial curve, poor fit].
In the case of `CCOc1ccc(OCc2ccc(C(=O)NC(C)(C)C)o2)cc1`, the Potency is reported as inconclusive: 14.1 µM [inhibitor, partial curve, poor fit].
For `O=C(c1ccc(OC2CCN(C/C=C/c3ccc(F)cc3)CC2)cc1)N1CCCCC1`, the Potency was inconclusive: 22.4 µM [inhibitor, single point].
With `COC(=O)c1ccc(Cl)c(-c2ccc(/C=N/NC(=O)Nc3ccccc3)o2)c1` the Potency was “inactive”.
For `CC(=O)Nc1ccc(NC(=O)CSc2nc3ccccc3nc2N2CCC(C)CC2)cc1`, the Potency was “inactive and inconclusive: 22.4 µM [inhibitor, single point]”.
For `COc1ccc(C2CC(c3ccccc3)=NN2C(=O)CN2CCN(Cc3ccccc3)CC2)cc1` (centres undefined), the Potency was inconclusive: 35.5 µM [inhibitor, single point].
With `CCOC(=O)C1=C(C)NC(C)=C(C(=O)OCC)C1C(=O)OCC(=O)NCc1ccccc1` the Potency was inconclusive: 10 µM [inhibitor, partial curve].
In the case of `COc1ccccc1C(CNC(=S)NCc1ccccc1)N1CCCC1` (centres undefined), the Potency is reported as “inactive”.
In the case of `CC(C)C(C)(C#N)NC(=O)CSc1nc2scc(-c3ccco3)c2c(=O)n1-c1ccccc1` (centres undefined), the Potency is reported as “inactive”.
With `CCOC(=O)c1ccc(NC(=O)CSc2nnc(C3CC3)n2CC)cc1` the Potency was inconclusive: 1 µM [inhibitor, single point].
In the case of `COc1ccc(F)c(CN2CCC(n3nccc3NC(=O)CCCc3ccccc3)CC2)c1`, the Potency is reported as inconclusive: 0.282 µM [inhibitor, partial curve, poor fit].
With `COc1ccc(CNC(=O)CN2C(=O)CSc3ccc(S(=O)(=O)N4CCOCC4)cc32)c(OC)c1` the Potency was inconclusive: 31.6 µM [activator, single point].
For `Cc1ccc(C(=O)Nc2nnc(S(=O)(=O)N3c4ccccc4CC3C)s2)cc1` (centres undefined), the Potency was “inactive”.
In the case of `CCOc1ccc(NC(=O)c2cnn3c2NC(c2cccc(OC)c2)=CC3c2ccccc2)cc1` (centres undefined), the Potency is reported as inconclusive: 35.5 µM [inhibitor, single point].
With `CCc1ccc(NC(=S)Nc2cccc3cnccc23)cc1` the Potency was inconclusive: 22.4 µM [activator, single point].
With `Cc1ccc(/C=C/C(=O)c2ccccc2O)cc1` the Potency was “inactive”.
In the case of `COCC1CCCN(Cc2cn(Cc3ccccc3)nc2-c2cc3ccccc3o2)C1` (centres undefined), the Potency is reported as inconclusive: 20 µM [inhibitor, partial curve, poor fit].
For `COc1ccc(CNC(=O)c2cccc(S(=O)(=O)N3CCN(C)CC3)c2)cc1`, the Potency was inconclusive: 5.62 µM [activator, single point].
For `COc1cccc(N2CCN(C(=O)c3cccn4c(=O)c5c(C)c(C)sc5nc34)CC2)c1`, the Potency was “inactive”.
For `COc1cccc(-c2nnc(-c3ccccc3NC(=O)c3cccc(C(F)(F)F)c3)o2)c1`, the Potency was “inactive”.
In the case of `CCOC(=O)c1cc(OC(=O)c2ccc(C)cc2)n(-c2ccccc2)n1`, the Potency is reported as “inactive”.
For `CN1CCN(c2ccc([N+](=O)[O-])c(-n3nc(-c4ccccc4)c4ccccc4c3=O)c2)CC1`, the Potency was inconclusive: 20 µM [inhibitor, single point].
In the case of `O=c1c(S(=O)(=O)c2ccccc2)cn(Cc2cccc(F)c2)c2cc(N3CCOCC3)c(F)cc12`, the Potency is reported as inconclusive: 35.5 µM [inhibitor, single point].
With `Nc1ccc(-n2nncc2-c2ccc(Cl)cc2)cc1` the Potency was “inactive”.
For `CCOC(=O)C1CCN(c2cc3c(cc2NC(=O)c2ccccc2F)n(C)c(=O)n3C)CC1`, the Potency was “inactive”.
In the case of `Cc1cccc(N(C)S(=O)(=O)c2ccc3[nH]c(=O)c(=O)[nH]c3c2)c1`, the Potency is reported as inconclusive: 0.13 µM [inhibitor, full curve, poor fit].
With `O=C1CCCN1CC(CN1CCOCC1)Sc1nc2ccccc2c(=O)n1-c1ccccc1` (centres undefined) the Potency was inconclusive: 8.91 µM [inhibitor, partial curve, poor fit].
With `COc1ccc(NC2=NCC(Cc3ccc(Br)cc3)S2)cc1` (centres undefined) the Potency was inconclusive: 28.2 µM [inhibitor, single point].
In the case of `COc1cc(-c2noc(-c3ccco3)n2)cc(OC)c1OC`, the Potency is reported as “inactive”.
With `CC(C)Cc1nc(Nc2ccc(S(=O)(=O)N3CCCC3)cc2)c2nnn(Cc3ccccc3)c2n1` the Potency was inconclusive: 28.2 µM [inhibitor, single point].
In the case of `Cc1cc(CNC(=O)Cn2cc([N+](=O)[O-])cn2)c2ccccc2n1`, the Potency is reported as inconclusive: 3.16 µM [inhibitor, single point].
With `O=C(NC1CCSC1=O)c1ccccc1` (centres undefined) the Potency was “inactive”.
With `Cc1cc(C)cc(NC(=O)CN2C(=O)c3ccccc3Sc3ncccc32)c1` the Potency was “inactive”.
For `O=C(CN(Cc1ccccc1)C(=O)c1csnn1)NCc1ccccc1`, the Potency was inconclusive: 8.91 µM [inhibitor, partial curve, poor fit].
For `COc1cccc(NC(=O)CSc2nnc(-c3ccoc3C)n2-c2ccccc2)c1`, the Potency was inconclusive: 35.5 µM [inhibitor, single point].
For `Cc1ccc(C2CC(=O)C=C(NCC(C)C)C2)cc1` (centres undefined), the Potency was “inactive”.
In the case of `COC(=O)c1c(C)oc2ccc(NS(=O)(=O)c3cc(OC)ccc3OC)cc12`, the Potency is reported as inconclusive: 22.4 µM [inhibitor, single point].
In the case of `O=C(c1cccs1)N1N=C(c2ccccc2)CC1c1ccc(O)cc1` (centres undefined), the Potency is reported as inconclusive: 28.2 µM [inhibitor, single point].
With `CCc1ccc2oc(C(=O)NCc3ccc(S(N)(=O)=O)cc3)c(C)c2c1` the Potency was inconclusive: 4.11 µM [activator, partial curve, poor fit].
In the case of `COc1ccc(NC2=Nc3ccccc3N3C2=Nc2c(c(C)nn2-c2ccc(C)cc2)C3c2cccnc2)cc1` (centres undefined), the Potency is reported as inconclusive: 0.794 µM [inhibitor, partial curve, poor fit].
In the case of `Cc1cc(C)c(NC(=S)NC(=O)c2ccc(-c3ccccc3)cc2)c(C)c1`, the Potency is reported as active: 8.91 µM.
With `CC(=O)c1ccc(NC(=O)CSc2nc(-c3cccc(F)c3)nc3c2c(=O)n(C)c(=O)n3C)cc1` the Potency was “inactive”.
In the case of `O=C(CN1CCN(c2ccccc2)CC1)N1CCN(c2ccccc2)CC1`, the Potency is reported as inconclusive: 31.6 µM [inhibitor, single point].
For `CC(NC(=O)Nc1cccnc1)(C(F)(F)F)C(F)(F)F`, the Potency was “inactive”.
For `c1cc(-c2sc(-c3ccncc3)c(-c3ccncc3)c2-c2ccncc2)ccn1`, the Potency was “inactive”.
With `COc1ccc(C2CCCN2CC(O)COc2ccccc2C(C)C)cc1` (centres undefined) the Potency was inconclusive: 25.1 µM [inhibitor, single point].
For `CC(C)(C)c1ccc(C(=O)NNc2ccc(F)cc2F)cc1`, the Potency was inconclusive: 11.2 µM [inhibitor, partial curve].
In the case of `O=C(COc1ccc(Cl)cc1Cl)NNC(=S)NC(=O)c1ccco1`, the Potency is reported as “inactive”.
In the case of `CCCCc1ccc(Nc2nc(CCC)cc(=O)[nH]2)cc1`, the Potency is reported as inconclusive: 15.8 µM [inhibitor, single point].
In the case of `CCOc1ccccc1OCCCOc1ccc(C)cc1Br`, the Potency is reported as “inactive”.
With `Cc1ccccc1CN1C(=O)C(O)(CC(=O)c2ccncc2)c2ccccc21` (centres undefined) the Potency was “inactive”.
In the case of `COc1ccc(NC(=O)CCCc2ccc(OC)c(C)c2)cc1`, the Potency is reported as inconclusive: 2.82 µM [inhibitor, partial curve, poor fit].
